Taken from: PubChem BioAssay AID504774 (Drosophila RNAi Screening Center, 2011)

Purpose: 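Genes required for cells to withstand methyl methanesulphonate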 (primary screen)
System: Drosophila Kc167 cells
Reagent: long dsRNA against Drosophila genes, about 0.25 µg dsRNA per well
Timing: about 6 days: 3 days knock-down, then 3 days with or without MMS
Conditions: methyl methanesulphonate 0.004% (w/v) for 3 days after knock-down
Read-out: 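ATP-dependent luminescence as a measure of live cells in MMS-exposed wells, quantile normalised within each plate, with replicate values also given as a mean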
Scale: mean viability with MMS and viability with MMS: higher = more surviving cells after MMS
The screen tested about 23,000 reagents; this is a random part of those with a known target gene and a result. 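Values are quantile-normalised luminescence on an arbitrary scale; higher means more cells surviving MMS.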

| target gene | dsRNA | mean viability with MMS | viability with MMS, replicate 1 | viability with MMS, replicate 2 |
| --- | --- | --- | --- | --- |
| CG2201 | DRSC03721 | 3.49e6 | 3.76e6 | 4.00e6 |
| CG42369 | DRSC03244 | 3.33e6 | 3.88e6 | 3.58e6 |
| CG30480 | DRSC06736 | 3.65e6 | 4.21e6 | 4.03e6 |
| CG12009 | DRSC08217 | 3.73e6 | 4.22e6 | 4.24e6 |
| Cmtr1 | DRSC18400 | 3.58e6 | 3.89e6 | 4.24e6 |
| phtf | DRSC05023 | 3.62e6 | 4.05e6 | 4.12e6 |
| Pc | DRSC11873 | 3.42e6 | 4.03e6 | 3.69e6 |
| CG4928 | DRSC19342 | 3.58e6 | 4.17e6 | 3.96e6 |
| sns | DRSC06423 | 2.96e6 | 3.61e6 | 3.61e6 |
| sns | DRSC07687 | 3.35e6 | 3.80e6 | 3.81e6 |
| sns | DRSC07688 | 1.97e6 | 4.19e6 | – |
| sns | DRSC07689 | 3.65e6 | 4.08e6 | 4.12e6 |
| sns | DRSC07691 | 3.56e6 | 4.02e6 | 4.04e6 |
| sns | DRSC07692 | 3.29e6 | 3.77e6 | 3.73e6 |
| RpL37A | DRSC02899 | 3.11e6 | 3.43e6 | 3.49e6 |
| wcy | DRSC20132 | 3.47e6 | 4.04e6 | 3.82e6 |
| Dpy-30L1 | DRSC02959 | 3.43e6 | 3.88e6 | 3.87e6 |
| CG8746 | DRSC07257 | 3.44e6 | 3.83e6 | 3.99e6 |
| CG13544 | DRSC04186 | 3.49e6 | 3.99e6 | 3.90e6 |
| Cyp6a17 | DRSC07378 | 3.42e6 | 3.83e6 | 3.89e6 |
| Sap30 | DRSC19916 | 3.54e6 | 4.09e6 | 3.96e6 |
| ssp2 | DRSC11052 | 3.39e6 | 3.74e6 | 3.93e6 |
| CG10953 | DRSC06021 | 3.71e6 | 4.20e6 | 4.16e6 |
| CG44098 | DRSC12214 | 3.59e6 | 4.07e6 | 3.95e6 |
| CG44098 | DRSC12327 | 3.58e6 | 4.05e6 | 4.06e6 |
| CG3708 | DRSC18646 | 3.62e6 | 3.92e6 | 4.29e6 |
| Rchy1 | DRSC02542 | 3.12e6 | 3.34e6 | 3.63e6 |
| Rchy1 | DRSC23118 | 3.48e6 | 3.94e6 | 3.99e6 |

Reformatted: 5 of the entries above
CG12009 [DRSC08217]: mean viability with MMS = 3.73e6; viability with MMS, replicate 1 = 4.22e6; viability with MMS, replicate 2 = 4.24e6
Cmtr1 [DRSC18400]: mean viability with MMS = 3.58e6; viability with MMS, replicate 1 = 3.89e6; viability with MMS, replicate 2 = 4.24e6
phtf [DRSC05023]: mean viability with MMS = 3.62e6; viability with MMS, replicate 1 = 4.05e6; viability with MMS, replicate 2 = 4.12e6
Pc [DRSC11873]: mean viability with MMS = 3.42e6; viability with MMS, replicate 1 = 4.03e6; viability with MMS, replicate 2 = 3.69e6
CG4928 [DRSC19342]: mean viability with MMS = 3.58e6; viability with MMS, replicate 1 = 4.17e6; viability with MMS, replicate 2 = 3.96e6
